# Laboratory results published in publication PMC5495492.
# These are yes or no findings as the source states them, for the method shown. In cells and extracts the contact can be indirect. Some results given as binding are weak or reduced against the parent protein; the word gives no strength. Tags and fused reporters may be left off the sequences shown.
# T1: HA-mTCP4 (Arabidopsis thaliana) (UniProt Q8LPR5)
# T1 sequence: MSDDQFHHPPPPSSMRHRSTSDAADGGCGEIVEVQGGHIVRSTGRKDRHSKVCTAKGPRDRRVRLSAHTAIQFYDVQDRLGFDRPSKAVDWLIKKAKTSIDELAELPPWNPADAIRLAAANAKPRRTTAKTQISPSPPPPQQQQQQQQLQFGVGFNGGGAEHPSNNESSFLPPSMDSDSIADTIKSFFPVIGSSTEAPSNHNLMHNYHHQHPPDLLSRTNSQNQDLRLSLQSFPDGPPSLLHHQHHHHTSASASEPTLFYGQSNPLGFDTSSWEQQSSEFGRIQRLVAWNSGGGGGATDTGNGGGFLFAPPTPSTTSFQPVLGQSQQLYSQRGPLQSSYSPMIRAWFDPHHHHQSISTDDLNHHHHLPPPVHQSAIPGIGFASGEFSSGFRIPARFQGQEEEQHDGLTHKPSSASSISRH
# Target: T1, HA-mTCP4 (Arabidopsis thaliana)
# Assay: co-IP; 35S:HA-mTCP4 and 35S:GI-6H3F infiltrated into N. benthamiana plants grown in LD; co-IP as in ref. 67
binder,measurement,value
"GI-3F6H (35S:GI-6H3F) (protein, UniProt Q9SQI2 1-1173) MASSSSSERWIDGLQFSSLLWPPPRDPQQHKDQVVAYVEYFGQFTSEQFPDDIAELVRHQYPSTEKRLLDDVLAMFVLHHPEHGHAVILPIISCLIDGSLVYSKEAHPFASFISLVCPSSENDYSEQWALACGEILRILTHYNRPIYKTEQQNGDTERNCLSKATTSGSPTSEPKAGSPTQHERKPLRPLSPWISDILLAAPLGIRSDYFRWCSGVMGKYAAGELKPPTIASRGSGKHPQLMPSTPRWAVANGAGVILSVCDDEVARYETATLTAVAVPALLLPPPTTSLDEHLVAGLPALEPYARLFHRYYAIATPSATQRLLLGLLEAPPSWAPDALDAAVQLVELLRAAEDYASGVRLPRNWMHLHFLRAIGIAMSMRAGVAADAAAALLFRILSQPALLFPPLSQVEGVEIQHAPIGGYSSNYRKQIEVPAAEATIEATAQGIASMLCAHGPEVEWRICTIWEAAYGLIPLNSSAVDLPEIIVATPLQPPILSWNLYIPLLKVLEYLPRGSPSEACLMKIFVATVETILSRTFPPESSRELTRKARSSFTTRSATKNLAMSELRAMVHALFLESCAGVELASRLLFVVLTVCVSHEAQSSGSKRPRSEYASTTENIEANQPVSNNQTANRKSRNVKGQGPVAAFDSYVLAAVCALACEVQLYPMISGGGNFSNSAVAGTITKPVKINGSSKEYGAGIDSAISHTRRILAILEALFSLKPSSVGTPWSYSSSEIVAAAMVAAHISELFRRSKALTHALSGLMRCKWDKEIHKRASSLYNLIDVHSKVVASIVDKAEPLEAYLKNTPVQKDSVTCLNWKQENTCASTTCFDTAVTSASRTEMNPRGNHKYARHSDEGSGRPSEKGIKDFLLDASDLANFLTADRLAGFYCGTQKLLRSVLAEKPELSFSVVSLLWHKLIAAPEIQPTAESTSAQQGWRQVVDALCNVVSATPAKAAAAVVLQAERELQPWIAKDDEEGQKMWKINQRIVKVLVELMRNHDRPESLVILASASDLLLRATDGMLVDGEACTLPQLELLEATARAIQPVLAWGPSGLAVVDGLSNLLKCRLPATIRCLSHPSAHVRALSTSVLRDIMNQSSIPIKVTPKLPTTEKNGMNSPSYRFFNAASIDWKADIQNCLNWEAHSLLSTTMPTQFLDTAARELGCTISLSQ",binding,binds
